Screen size: about 320,000 compounds; about 22,000 (6.9%) were called active. The inconclusive results got no clear call from the source; some entries with a clear call stand among them for comparison. The call rests on the fitted dose curve; in most records, active means well fitted inhibition curve with a large enough effect; inconclusive means small, poorly fitted or top-dose-only effect, or another doubt; inactive means no such curve, though single readings can be large or run the other way. Potencies beside an inconclusive call are fits to weak or partial responses and may not hold up.
test: Primary qHTS for delayed death inhibitors of the malarial parasite plastid, 96 hour incubation; conditions: P. falciparum luciferase reporter growth; series mostly up to 28.7 µM
Method in brief: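 Parasite growth measured via integrated firefly luciferase reporter in P. falciparum. Infected erythrocytes at 2% hematocrit, 0.05% parasitemia final were treated 96 hours at 37 C under 5% CO2, and luminescence was read.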
Potency means the concentration at half of the fitted maximal effect.

SMILES | Potency
CCOc1ccc(-n2c(O)c(/C=N/Nc3nnc(C)c(=O)[nH]3)c3ccccc3c2=O)cc1 | inconclusive: 2.08 µM [inhibitor, partial curve, poor fit]
CCCN(CCC)CCCNC(=O)c1cc2c(=O)n(C)c3ccccc3c2n1C | inconclusive: 5.22 µM [inhibitor, partial curve, poor fit]
Cc1ccccc1OCC(O)CN1CCC(C)CC1 (configuration not stated) | inconclusive: 2.08 µM [inhibitor, full curve, poor fit]
O=S(=O)(Cc1ccc(Cl)cc1)NCc1ccc2c(c1)OCO2 | inconclusive: 16.5 µM [inhibitor, partial curve, poor fit]
CCc1noc(C)c1C(=O)OCC(=O)c1ccccc1OC | inconclusive: 18.5 µM [inhibitor, single point]
CC(C)CC(=O)c1c[nH]c(C(=O)N2CCN(Cc3ccccc3)CC2)c1 | inconclusive: 8.28 µM [inhibitor, partial curve]
COC(=O)CCc1sc(Nc2ccccc2)nc1-c1ccc(OC)cc1 | inactive
O=C(O)C1C2CCC(C2)C1C(=O)NCCCn1ccnc1 (configuration not stated) | inactive
CCN1CCN(C(C(=O)NC2CCCC2)c2ccc(Cl)cc2)CC1 (configuration not stated) | active: 11.7 µM
COc1ccc(C(=O)N2CCN(C(=O)c3ccco3)CC2)cc1 | inconclusive: 3.7 µM [inhibitor, full curve]
O=C(CN1CCN(C(=O)C2COc3ccccc3O2)CC1)Nc1ccc(F)cc1 (configuration not stated) | inactive
COc1cc(/C=N/n2c(SC)nnc(C(C)(C)C)c2=O)ccc1O | inactive
COc1ccc(OCC2CCCN(Cc3nc(CC4CC4)no3)C2)cc1 (configuration not stated) | inconclusive: 18.5 µM [inhibitor, single point]
Cc1ccc(-c2nsc3c(N4CCC(C(N)=O)CC4)ncnc23)cc1 | inconclusive: 11.7 µM [inhibitor, single point]
COc1ccc(CNC(=O)C(=O)NCC2OCCN2C(=O)c2ccc(OC)cc2)cc1 (configuration not stated) | inactive
O=C(Nc1ccc(F)cc1F)c1c(C(F)(F)F)ccnc1Oc1cccc(C(F)(F)F)c1 | active: 10.4 µM
COc1ccccc1N1CCN(C(=O)COc2cc(C)cc3oc(=O)cc(C)c23)CC1 | inconclusive: 18.5 µM [inhibitor, single point]
O=C(CSS(=O)(=O)O)N1CCN(C(=O)c2ccoc2)CC1 | inactive
CC(=O)c1ccc2noc(-c3ccccc3)c2c1 | inactive
C#Cc1cccc(NC(=O)C2CCN(C(C)=O)CC2)c1 | inconclusive: 18.5 µM [inhibitor, single point]
CN(CC(=O)Nc1ccccc1Cl)C(=O)CSc1nnc(-c2ccco2)n1C | inconclusive: 20.8 µM [inhibitor, partial curve, poor fit]
O=C1Nc2cc(C(=O)N3CCC(N4CCCCC4)CC3)ccc2S/C1=C\c1ccccc1 | inconclusive: 18.5 µM [inhibitor, single point]
CC1(C)CSC(=NCCc2ccccc2)N1 | inactive
COc1ccc(N2CCN(CCCNC(=O)Cn3c(=O)c4cccn4c4ccccc43)CC2)cc1 | inconclusive: 0.928 µM [inhibitor, full curve, poor fit]

SMILES | Potency
CC(=O)Nc1cc(C(=O)c2ccccc2)ccc1N1CCOCC1 | inactive
CCOC(=O)C(=CNc1ccc(Oc2cncc(Cl)c2)nc1)C(=O)OCC | inactive
CN1CCc2c(sc(NC(=O)C3CCCN3S(=O)(=O)c3ccc(Cl)s3)c2C(N)=O)C1 (configuration not stated) | inconclusive: 5.86 µM [inhibitor, partial curve, poor fit]
COc1ccc2c(c1)N(C[C@@H](C)CN(C)C)c1ccccc1S2 | inconclusive: 7.21 µM [inhibitor, single point]
Cc1cccc(C(=O)NC(=S)Nc2ccccc2C(F)(F)F)c1 | inactive
Cc1cc(C(F)(F)F)n(-c2nc(C(=O)NNS(=O)(=O)c3ccccc3[N+](=O)[O-])cs2)n1 | inconclusive: 18.5 µM [inhibitor, single point]
Cn1cnc([N+](=O)[O-])c1Sc1nnc(-c2cccnc2)n1C | inconclusive: 7.38 µM [inhibitor, partial curve]
Fc1ccc(C2Nc3cccc4cccc(c34)N2)cc1 | inactive
CC(C)OC(=O)c1ccc(COC(=O)c2cccc(-c3nnc(-c4ccccc4)o3)c2)cc1 | inconclusive: 18.5 µM [inhibitor, single point]
CCCC(=O)NC(NC(=S)Nc1ccc(S(N)(=O)=O)cc1)C(Cl)(Cl)Cl (configuration not stated) | inconclusive: 16.5 µM [inhibitor, partial curve, poor fit]
Nc1ccc(-n2nnnc2CN2CCOCC2)cc1 | inconclusive: 18.5 µM [inhibitor, single point]
COc1ccc(CCC(C)Nc2cccc(F)c2)cc1 (configuration not stated) | inconclusive: 8.28 µM [inhibitor, partial curve, poor fit]
COCc1ccc(C(=O)N(C)C2CCCN(Cc3ccccc3F)C2)o1 (configuration not stated) | active: 2.94 µM
Cc1ccc(C(C(=O)NC2CCCC2)N2CCCC(C)C2)cc1 (configuration not stated) | inconclusive: 18.5 µM [inhibitor, single point]
COc1cccc(N2CCN(S(=O)(=O)c3cn(C)cn3)CC2)c1 | inconclusive: 5.86 µM [inhibitor, partial curve]
CSc1nncc(-c2ccccc2)n1 | inconclusive: 18.5 µM [inhibitor, single point]
CCOC(=O)c1c(C2CC2)csc1NC(=O)COC(=O)c1cnc(Cl)c(Cl)c1 | inactive
Cc1cc(OCC(=O)NCC(O)c2ccccc2)c2c(C)c(C)c(=O)oc2c1 (configuration not stated) | inconclusive: 14.7 µM [inhibitor, single point]
CN(C)S(=O)(=O)c1ccc2c(c1)nc(CCC(=O)NCc1ccc(Cl)cc1)n2C | inconclusive: 3.7 µM [inhibitor, full curve, poor fit]
CC(=O)C1=C(O)C(=O)N(c2ccccn2)C1c1ccc(C)cc1 (configuration not stated) | active: 0.37 µM
O=C(OCC(=O)c1ccc[nH]1)c1ccccc1 | inactive
CCOC(=O)/C(=N\Nc1ccccc1[N+](=O)[O-])c1csc(Nc2ccccc2)n1 | inconclusive: 18.5 µM [inhibitor, single point]
COc1ccc(F)cc1C(=O)C1CCCN(Cc2ccc(O)cc2)C1 (configuration not stated) | inconclusive: 18.5 µM [inhibitor, single point]
CSc1ccc(C(=S)N2CCN(C(c3ccccc3)c3ccccc3)CC2)cc1 | active: 5.22 µM

A second format for some results above.
SMILES	Potency
Cn1cnc([N+](=O)[O-])c1Sc1nnc(-c2cccnc2)n1C	inconclusive: 7.38 µM [inhibitor, partial curve]
Fc1ccc(C2Nc3cccc4cccc(c34)N2)cc1	inactive
CC(C)OC(=O)c1ccc(COC(=O)c2cccc(-c3nnc(-c4ccccc4)o3)c2)cc1	inconclusive: 18.5 µM [inhibitor, single point]

Further records:

SMILES | Potency
COCCSc1ccccc1C(=O)Nc1cc([N+](=O)[O-])ccc1OC | inconclusive: 9.28 µM [inhibitor, single point]
COc1ccc(-c2noc(-c3ccoc3C)n2)cc1 | inconclusive: 13.1 µM [inhibitor, single point]
NNc1nc2sc3c(c2c(=O)n1Cc1ccccc1)CCC3 | inactive
CN(C)S(=O)(=O)c1ccc2[nH]cc(/C=C/c3nc4ccccc4c(=O)n3-c3ccccc3)c2c1 | inconclusive: 13.1 µM [inhibitor, partial curve]
CCc1nnc(NC(=O)c2ccc(C)o2)s1 | inactive
O=[N+]([O-])c1cc(C(F)(F)F)ccc1NC1CCN(Cc2ccccc2)C1 (configuration not stated) | inconclusive: 13.1 µM [inhibitor, single point]
NS(=O)(=O)c1ccc(CCNC(=O)CN2CCCCCC2)cc1 | inactive
CN1/C(=C/C=N/n2cnnc2)C(C)(C)c2ccccc21 | inconclusive: 3.7 µM [inhibitor, partial curve]
CC(C)CCn1c(CN2CCN(C(=O)c3ccco3)CC2)nc2c1c(=O)n(C)c(=O)n2C | active: 6.57 µM
Cc1cc(C)nc(N2CCC(C(=O)NCc3ccccc3F)CC2)n1 | inactive
COc1ccc(NC(=O)CSc2ncccc2C(=O)OC(C)C)cc1OC | inactive
CCOC(=O)CSc1nc2ccccc2c(=O)n1C1CCCC1 | inactive
C#CCOCCOCCOCCNc1nc(N2CCN(C(=O)[C@H]([C@@H](C)CC)n3cc([C@@H](N)Cc4ccc(O)cc4)nn3)CC2)nc(N2CCN(C(=O)[C@H](CCCCN)n3cc([C@@H](N)CC(C)C)nn3)CC2)n1 | inactive
CCN(CC)P(=O)(Nc1cccc(C(F)(F)F)c1)c1ccc(N(C)C)cc1NC(=O)c1ccco1 (configuration not stated) | active: 1.85 µM
Cc1cc(Cl)c(OCCOCCN2CCC(C)CC2)c(Br)c1 | active: 11.7 µM
CS(=O)(=O)Nc1ccccc1C(=O)OCC(=O)NC1CC1 | inconclusive: 13.1 µM [inhibitor, single point]
CC(C)N1C(=O)CN(C2CCCCCC2)C(=O)C1c1ccccc1F (configuration not stated) | inconclusive: 0.828 µM [inhibitor, full curve, poor fit]
Cc1cccc2c1cnn2C(=O)CCC(=O)NC1CCCCC1 | active: 13.1 µM
Nc1nc(NCCOCCO)nc(NCC2CCCO2)c1[N+](=O)[O-] (configuration not stated) | inactive
O=C(N/N=C/c1ccc([N+](=O)[O-])cc1)c1ccc2nc[nH]c2c1 | inconclusive: 0.0738 µM [inhibitor, full curve, poor fit]
CC(=O)Oc1ccc(C(=O)[C@H]2[C@H]3C(=O)N(c4ccccc4)C(=O)[C@H]3[C@@H]3C=CC=NN32)cc1 | inactive
O=C(NCCCN1CCOCC1)c1cc2c(=O)[nH]c3ccccc3c2s1 | inconclusive: 1.04 µM [inhibitor, partial curve, poor fit]
CCCCn1c2ccc(F)cc2c2nnc(NN)nc21 | inconclusive: 1.47 µM [inhibitor, full curve]
Cn1c(C(=O)N2CCCC2)cc2c(=O)n(C)c3ccccc3c21 | inactive
